Measurements: PubChem BioAssay AID504444 (National Center for Advancing Translational Sciences (NCATS), 2011)
The whole screen tested about 360,000 compounds, of which about 7,500 (2.1%) were called active. The shares of active, inactive and inconclusive entries below differ from those in the screen. The call rests on the fitted dose curve; in most records, active means well fitted inhibition curve with a large enough effect; inconclusive means small, poorly fitted or top-dose-only effect, or effect the other way; inactive means flat fitted curve, though single readings scatter. Potencies of inconclusive entries are doubtful fits and often do not repeat.

Assay: Nrf2 qHTS screen for inhibitors; further: nearly all actives have a fitted effect of over 60% in size
Settings: A549 ARE-Fluc reporter, luciferase luminescence, 18-24 h; activity change, negative = inhibition: at 46 µM (top of the series)
In short: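 Quantitative HTS in A549 cells stably bearing an antioxidant response element-firefly luciferase construct. Inhibition of Nrf2-driven transcription was scored by luminescence after 18-24 h of compound exposure at 37 °C.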
On the % scale 0 is the no-effect control and ±100 the full control effect; potency means the concentration at half of the fitted maximal effect.

Compound	Potency	activity change, negative = inhibition
Cc1sc2ncnc(N3CCC(C(=O)NCC(=O)Nc4ccc(F)c(F)c4)CC3)c2c1C	active: 18.4 µM	–
Oc1c(Br)cc(Br)cc1/C=N/c1nccs1	inconclusive: 20.6 µM [falling, single point]	–
CCC1(CC)NC(=O)N(CC(=O)OCc2nc3cc(C(=O)OC)ccc3c(=O)[nH]2)C1=O	–	inactive: -15.3%
O=C(c1cc(-c2cccs2)on1)N1CCOCC1	inconclusive: 25.9 µM [activator, single point]	–
Cc1cccc(C(=O)NNC(=O)CN2C(=O)c3ccccc3C2=O)c1	inconclusive: 2.06 µM [activator, partial curve, poor fit]	–
COc1ccc(C(=O)NC(=C(Cl)Cl)S(=O)(=O)c2ccc(C)cc2)cc1	inconclusive: 29.1 µM [falling, single point]	–
COc1cccc(CNC(=O)CNS(=O)(=O)c2ccc3nc(C)sc3c2)c1	–	inactive: -4.03%
CCC1C(=NO)C(CC)C(c2ccccc2)NC1c1ccccc1 (stereo unspecified)	inconclusive: 16.4 µM [falling, single point]	–
Cc1ccc(-c2nnc(-c3cccs3)o2)cc1	inconclusive: 10.3 µM [activator, partial curve]	–
Cc1ccc(NC(=O)CN2CCCC2c2cccn2C)c(Br)c1 (stereo unspecified)	inconclusive: 0.731 µM [activator, partial curve, poor fit]	–
CCN(c1ccccc1)S(=O)(=O)c1ccc(OCC(=O)Nc2cc(C)on2)cc1	inconclusive: 5.8 µM [activator, single point]	–
O=C(C=Cc1cccs1)c1cccs1	–	inactive: 1.12%
O=C(c1ccc(Cl)cc1)N(Cc1ccco1)Cc1ccco1	–	inactive: -20.4%
COc1cc(C(=O)N2CCN(Cc3ccc4c(c3)OCO4)CC2)c([N+](=O)[O-])cc1OC	inconclusive: 32.6 µM [falling, partial curve, poor fit]	–
O=C(NC1CCN(Cc2ccc(Cl)cc2Cl)CC1)c1ccccc1	inconclusive: 32.6 µM [falling, single point]	–
CCCc1nnc(NC(=O)CCC(=O)NCc2ccccc2)s1	inconclusive: 29.1 µM [falling, single point]	–
COc1ccc(-c2cc(-c3cccs3)c(C#N)c(SCC(=O)NCc3ccccc3OC)n2)cc1	–	inactive: 4.46%
CCC(C)(C)NS(=O)(=O)c1cc(-c2cc(C)no2)ccc1C	–	inactive: -7.01%
Cc1ccc(C)c(CN2C(=O)c3ccccc3S(=O)c3ccc(C(=O)N4CCC(C)CC4)cc32)c1 (stereo unspecified)	–	inactive: 1.62%
CCOc1cc(/C=N/NC(=O)c2ccc(CN3CCOCC3)cc2)ccc1OCc1ccccc1	inconclusive: 23.1 µM [falling, partial curve, poor fit]	–
Cc1ccc(C(c2nnnn2C(C)(C)C)N(Cc2ccco2)Cc2cccs2)cc1 (stereo unspecified)	inconclusive: 20.6 µM [falling, single point]	–
Nc1nc(N)nc(-c2ccc([N+](=O)[O-])o2)n1	–	inactive: -14.3%

Three structures from above, arranged by SMILES length, smallest number first.
Compound	Potency	activity change, negative = inhibition
O=C(c1ccc(Cl)cc1)N(Cc1ccco1)Cc1ccco1	–	inactive: -20.4%
CCOc1cc(/C=N/NC(=O)c2ccc(CN3CCOCC3)cc2)ccc1OCc1ccccc1	inconclusive: 23.1 µM [falling, partial curve, poor fit]	–
Cc1sc2ncnc(N3CCC(C(=O)NCC(=O)Nc4ccc(F)c(F)c4)CC3)c2c1C	active: 18.4 µM	–

Further entries follow.

Compound	Potency	activity change, negative = inhibition
O=C1Nc2cc(C(=O)NCCCN3CCCC3)ccc2S/C1=C/c1ccccc1F	–	inactive: 13.5%
CCN1C(=O)/C(=C/C=C2/Sc3ccccc3N2CCO)SC1=S	inconclusive: 5.8 µM [falling, partial curve, poor fit]	–
CC1CCN(CCC(=O)Nc2nccs2)CC1	inconclusive: 0.517 µM [falling, full curve, poor fit]	–
CCc1ccccc1N(C(=O)c1snc(C(N)=O)c1N)C(C(=O)NCC1CCCO1)c1c[nH]c2ccccc12 (stereo unspecified)	inconclusive: 23.1 µM [activator, single point]	–
Cc1ccc(S(=O)(=O)N2[C@@H](c3cccc(Cl)c3)C(C(=O)O)=CC[C@H]2c2cccc(Cl)c2)cc1	inconclusive: 18.4 µM [falling, single point]	–
O=C(c1cc2ccc3cccnc3c2[nH]1)N1CCN(c2cccc(C(F)(F)F)c2)CC1	inconclusive: 18.4 µM [falling, single point]	–
Cc1cc(-c2c(C)[nH]n(-c3ccc(Cl)cc3)c2=O)n[nH]1	inconclusive: 20.6 µM [falling, single point]	–
Cc1ccc(NS(=O)(=O)c2c(C)[nH]c(C)c2C(=O)N2CCCCC2)cc1Cl	inconclusive: 7.31 µM [falling, partial curve, poor fit]	–
Cc1ccc(OCC(=O)N/N=C\c2c(C)n(C)c3ccccc23)c([N+](=O)[O-])c1	inconclusive: 10.3 µM [falling, partial curve, poor fit]	–
CC(=O)N1CCOc2cc(S(=O)(=O)NCc3ccc(C)cc3)c(C)cc21	–	inactive: 9.64%
CCN1CCN(CCCNC(=O)c2cc3c(=O)n(CC)c4ccccc4c3s2)CC1	–	inactive: -4.02%
CCOc1cnc(-c2c(-c3c(Cl)cccc3Cl)noc2C)o1	inconclusive: 29.1 µM [falling, single point]	–
COc1ccc(-c2cc(C(F)(F)F)nc(SCC(=O)N(C)Cc3ccccc3)n2)cc1OC	inconclusive: 29.1 µM [falling, single point]	–
CCCNc1ncnc2c1cnn2C1CCCCO1 (stereo unspecified)	inconclusive: 25.9 µM [activator, single point]	–
CCOC(=O)C1CCN(c2cc3c(cc2NC(=O)c2ccccc2)n(C)c(=O)n3C)CC1	–	inactive: 10.7%
CCC(C)(C)n1nnnc1C(c1cc2ccc(OC)cc2[nH]c1=O)N1CCc2ccccc21 (stereo unspecified)	inconclusive: 29.1 µM [falling, single point]	–
COc1ccc(N2CCN(S(=O)(=O)c3csc(C(N)=O)c3)CC2)cc1	inconclusive: 29.1 µM [activator, single point]	–
CCn1c(C)nc2cc(C(=O)NNC(=S)NC(=O)c3ccccc3)ccc21	inconclusive: 20.6 µM [falling, single point]	–
COc1ccc(CCNC(=S)Nc2cccc(C)c2C)cc1	inconclusive: 14.6 µM [falling, partial curve, poor fit]	–
O=C(Nc1cccc(-c2nc3ccccc3o2)c1)c1cc([N+](=O)[O-])ccc1N1CCOCC1	inconclusive: 5.8 µM [falling, full curve, poor fit]	–
CCOC(=O)c1c(C)[nH]c(C(=O)OCC(=O)Nc2cc(C)nn2-c2ccccc2)c1C	inconclusive: 18.4 µM [falling, partial curve]	–
CN(C(=O)CCc1nnc(CCCCc2ccccc2)o1)C1CC(C)(C)NC(C)(C)C1	inconclusive: 29.1 µM [activator, partial curve, poor fit]	–

Compound	Potency	activity change, negative = inhibition
O=c1cc(Cl)c(-c2ccccc2)nn1Cc1ccc(Cl)cc1	inconclusive: 10.3 µM [activator, partial curve, poor fit]	–
CC(=O)Nc1ccc(NS(=O)(=O)c2ccc3c(c2)CC(C)N3C(=O)C2CCC2)cc1 (stereo unspecified)	–	inactive: 18.7%
COc1ccc(-n2nnnc2SCc2nc3ccccc3s2)cc1	inconclusive: 5.17 µM [activator, full curve]	–
COC(=O)CC1Oc2ccc(F)cc2-n2cc(-c3ccc(Cl)cc3)nc21 (stereo unspecified)	inconclusive: 8.2 µM [falling, partial curve, poor fit]	–
CC1=CC(C)(C)NC(=S)N1c1ccccc1C	inconclusive: 3.66 µM [falling, partial curve, poor fit]	–
CCOc1cc2[nH]c(=O)n(CCCC(=O)NCc3ccco3)c(=O)c2cc1OCC	–	inactive: -4.19%
COc1ccc(NC(=O)CN2CCCN(S(=O)(=O)c3ccc(Br)cc3)CC2)c(OC)c1	active: 20.6 µM	–
CCOC(=O)C1=C(C)NC(SCC(N)=O)=C(C#N)C1c1cccs1 (stereo unspecified)	–	inactive: -6.05%
CCN(CC)S(=O)(=O)c1ccc(-c2nnc(SCC(=O)N3c4ccccc4CC3C)n2CC)cc1 (stereo unspecified)	inconclusive: 20.6 µM [falling, partial curve]	–
Cc1ccccc1OCCSc1nc2ncnc(N)c2[nH]1	inconclusive: 29.1 µM [falling, single point]	–
CN(C)CCCN(C(=O)CCOc1ccccc1)c1nc2c(F)cccc2s1	inconclusive: 25.9 µM [falling, single point]	–
CCC(C)Nc1nc(N)c([N+](=O)[O-])c(Nc2ccccc2OC)n1 (stereo unspecified)	active: 14.6 µM	–
O=C1C(Cc2ccccc2)Nc2ncnc(N3CCOCC3)c2N1Cc1ccc(Br)cc1 (stereo unspecified)	inconclusive: 29.1 µM [falling, single point]	–
Cc1ccc(CNC(=O)C2CCC(CNS(=O)(=O)c3ccc4c(c3)CCCC(=O)N4)CC2)cc1 (stereo unspecified)	inconclusive: 29.1 µM [activator, single point]	–
Cc1ccnc(NC(=O)c2cc3ccccc3oc2=O)c1	inconclusive: 4.61 µM [activator, full curve]	–
Cc1ccc(-c2c(C)nn3c(N4CCOCC4)cc(C)nc23)cc1	inconclusive: 29.1 µM [falling, single point]	–
S=c1[nH]nc(-c2cc(-c3ccco3)[nH]n2)n1-c1cccc2ccccc12	inconclusive: 10.3 µM [falling, partial curve]	–
COc1ccc(S(=O)(=O)N2CCN(C(C)C(=O)Nc3ccc(C(C)C)cc3)CC2)cc1 (stereo unspecified)	inconclusive: 32.6 µM [falling, single point]	–
COc1ccc2cc(C#N)c(SCC(=O)NNC(=O)Cc3ccccc3)nc2c1	inconclusive: 29.1 µM [falling, single point]	–
CSCCC1NC(=O)C(C(C)=Nc2ccccc2)=C1O (stereo unspecified)	inconclusive: 10.3 µM [activator, partial curve, poor fit]	–
Cc1ccccc1C(=O)OCC(=O)N(C)c1ccccc1	inconclusive: 29.1 µM [activator, single point]	–
COc1cccc(NC(=O)CN(C)C(=O)c2cc(S(=O)(=O)N3CCCCCC3)ccc2OC)c1	inconclusive: 11.6 µM [falling, partial curve, poor fit]	–
